Data on two substances can be found in patent publication US7700553B2, “Selective inhibition of NF-κB activation by peptides designed to disrupt nemo oligomerization” (priority 2003, dated 2010).

A short description of the series: Kd and cooperativity indice of NLM peptides by Hill coefficient calculation. The format is binding. The text has this: The present inventors compared NLM-DR to the corresponding NLM peptide by measuring the respective cooperativity indices, which evidence an advantage of NLM-DR mutated peptide over the wild-type.
The calculation of the “cooperativity indice” by means of Hill coefficient is based on the following formula Boundmax×L^n/(KD^n+L^n)
Boundmax is the maximum concentration of the bound ligand,
L is the concentration of the free ligand,
n is the cooperativity indice and
KD, is the affinity constant of the ligand by the protein.
If these values were to be compared to those obtained from the curves without accounting for cooperativity, the affinity of NLM-DR peptide would be 75 times higher than the affinity of wild-type NLM peptide.

On to LKAQADIYKARFQAERHAREK [NLM-DR], for which the cooperativity indice is 1.4.
In the case of “NLM: corresponding wild type NLM peptide covering the same 21 amino acid range as NLM-DR (LKAQADIYKADFQAERHAREK)” it was 2.1.
